According to patent US20230181719A1, “NGR CONJUGATES AND USES THEREOF” (OSPEDALE SAN RAFFAELE S.R.L., priority 2020, published 2023):
No constants are given. Whether binding was seen depends on the method and setting. Some binding calls cover weakened binding; strength is not graded here.

Chains of the proteins cited; added tags and fusions are not shown. Lines headed by an entry give the natural chain unless they say otherwise; changes in a name come on top.
UniProt P08648: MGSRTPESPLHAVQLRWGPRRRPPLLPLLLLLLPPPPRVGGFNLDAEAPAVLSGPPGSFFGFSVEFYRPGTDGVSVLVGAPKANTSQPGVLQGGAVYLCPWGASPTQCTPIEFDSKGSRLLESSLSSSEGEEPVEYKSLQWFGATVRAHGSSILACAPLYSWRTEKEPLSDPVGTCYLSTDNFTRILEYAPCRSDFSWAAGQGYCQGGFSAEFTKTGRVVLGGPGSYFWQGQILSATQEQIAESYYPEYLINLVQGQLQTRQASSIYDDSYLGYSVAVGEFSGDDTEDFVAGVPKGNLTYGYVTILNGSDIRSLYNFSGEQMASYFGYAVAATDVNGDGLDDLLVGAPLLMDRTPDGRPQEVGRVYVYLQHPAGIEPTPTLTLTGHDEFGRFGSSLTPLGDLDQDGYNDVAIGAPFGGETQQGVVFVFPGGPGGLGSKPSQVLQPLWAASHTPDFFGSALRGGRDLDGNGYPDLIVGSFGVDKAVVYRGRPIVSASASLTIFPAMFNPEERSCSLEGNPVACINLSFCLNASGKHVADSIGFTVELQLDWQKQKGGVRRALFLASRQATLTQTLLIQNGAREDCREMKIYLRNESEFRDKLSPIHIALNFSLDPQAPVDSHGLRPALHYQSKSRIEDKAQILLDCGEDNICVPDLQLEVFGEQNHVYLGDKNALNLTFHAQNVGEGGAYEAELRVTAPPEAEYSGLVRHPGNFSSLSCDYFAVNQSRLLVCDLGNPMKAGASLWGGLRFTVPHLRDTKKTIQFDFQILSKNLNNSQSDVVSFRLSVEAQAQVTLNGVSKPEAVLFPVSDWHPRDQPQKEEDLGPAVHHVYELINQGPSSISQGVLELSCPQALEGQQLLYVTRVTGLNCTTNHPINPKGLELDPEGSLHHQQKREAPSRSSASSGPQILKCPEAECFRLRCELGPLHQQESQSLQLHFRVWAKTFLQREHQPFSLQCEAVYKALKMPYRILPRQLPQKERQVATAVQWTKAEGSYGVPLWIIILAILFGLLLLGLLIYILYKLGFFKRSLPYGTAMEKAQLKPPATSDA
UniProt P06756: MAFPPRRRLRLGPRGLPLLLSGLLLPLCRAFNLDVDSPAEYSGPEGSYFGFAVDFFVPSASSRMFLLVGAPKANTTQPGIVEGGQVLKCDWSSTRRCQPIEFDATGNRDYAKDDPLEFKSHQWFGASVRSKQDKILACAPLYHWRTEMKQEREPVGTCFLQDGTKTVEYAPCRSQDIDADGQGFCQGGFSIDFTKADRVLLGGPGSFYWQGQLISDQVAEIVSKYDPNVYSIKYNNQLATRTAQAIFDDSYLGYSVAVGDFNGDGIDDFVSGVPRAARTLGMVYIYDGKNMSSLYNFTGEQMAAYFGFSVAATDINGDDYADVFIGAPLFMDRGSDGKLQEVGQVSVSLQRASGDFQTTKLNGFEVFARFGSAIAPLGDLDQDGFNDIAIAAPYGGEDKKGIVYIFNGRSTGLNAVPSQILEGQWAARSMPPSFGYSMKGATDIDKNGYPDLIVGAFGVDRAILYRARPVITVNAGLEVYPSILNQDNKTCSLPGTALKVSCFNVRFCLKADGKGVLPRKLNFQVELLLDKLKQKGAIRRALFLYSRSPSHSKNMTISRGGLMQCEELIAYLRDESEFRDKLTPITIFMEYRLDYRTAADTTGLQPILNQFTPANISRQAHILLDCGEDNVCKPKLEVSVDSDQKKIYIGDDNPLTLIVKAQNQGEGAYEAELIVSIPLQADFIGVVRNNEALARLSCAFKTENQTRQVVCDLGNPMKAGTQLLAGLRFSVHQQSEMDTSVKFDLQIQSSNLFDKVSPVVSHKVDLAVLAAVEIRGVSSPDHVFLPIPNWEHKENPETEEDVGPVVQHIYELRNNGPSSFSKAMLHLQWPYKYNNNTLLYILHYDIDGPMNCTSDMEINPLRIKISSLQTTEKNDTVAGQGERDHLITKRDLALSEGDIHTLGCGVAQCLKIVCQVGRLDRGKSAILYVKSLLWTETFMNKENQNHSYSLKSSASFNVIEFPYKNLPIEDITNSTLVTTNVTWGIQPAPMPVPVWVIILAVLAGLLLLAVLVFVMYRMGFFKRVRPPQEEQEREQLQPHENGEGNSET

Experiments:
Test in all cases: competitive binding assay, integrin-coated plates
α5β1 integrin = molecular target: T1, α5β1 integrin (UniProt P08648 42-995; P05556 21-728, limits assumed)
T1 construct: Coated on microtiter plates

αvβ3 integrin = molecular target: T2, αvβ3 integrin (UniProt P06756 31-992; P05106 27-718, limits assumed)
T2 construct: Coated on microtiter plates

αvβ5 integrin = molecular target: T3, αvβ5 integrin (UniProt P06756 31-992; P18084 24-719, limits assumed)
T3 construct: Coated on microtiter plates

αvβ6 integrin = molecular target: T4, αvβ6 integrin (UniProt P06756 31-992; P18564 22-707, limits assumed)
T4 construct: Coated on microtiter plates

αvβ8 integrin = molecular target: T5, αvβ8 integrin (UniProt P06756 31-992; P26012 43-684, limits assumed)
T5 construct: Coated on microtiter plates

binding (α5β1 integrin): binds | binding (αvβ3 integrin): binds | binding (αvβ5 integrin): binds | binding (αvβ6 integrin): binds | binding (αvβ8 integrin): binds
B1: SCDGRCGVRY peptide (peptide)
peptide: SCDGRCGVRY
